Values from PubChem BioAssay AID1508588 (Peter MacCallum Cancer Centre, 2020).
The whole screen tested about 18,000 reagents; this is a random part of them. 790 of them (4.4%) were called active. 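Calls rest on a combination of fold-change classes in drug and vehicle arms, not all shown here.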

Test: 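Knock-downs boosting vemurafenib effects on melanoma cell growth or lactate release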 (primary screen)
Cells: human WM266.4 melanoma cells (BRAF V600 mutant)
Reagents: siRNA pool against human genes, 40 nM
Timing: 96 h from transfection to read-out
Conditions: vemurafenib 300 nM (about IC25), added 48 h after transfection, for 48 h; comparison arm got DMSO vehicle only
Detection: 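Cell gain (DAPI nuclei at end minus before drug, mean of two replicates) and medium lactate by absorbance per cell, both as ratio to non-targeting siRNA, also grouped into fold-change classes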
Direction: cell gain with vemurafenib: higher = more cell gain than with non-targeting siRNA; lactate per cell with vemurafenib: higher = more lactate made per cell
Call rule: 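Enhancement is called by pairing each knock-down's vehicle-arm and drug-arm fold-change classes for viability or glycolysis; which class combinations qualify is not given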
Meaning of the calls: active = enhances vemurafenib effect; inactive = no enhancement seen

gene | cell gain with vemurafenib | lactate per cell with vemurafenib | call
DYNLL1 | 0.62 | 1.14 | inactive
EPOR | 0.36 | 0.94 | inactive
MAP3K14 | 0.45 | 2.46 | inactive
ASPHD1 | 0.53 | 0.94 | inactive
SATB1 | 0.95 | 1.56 | inactive
BUB3 | 0.41 | 2.08 | inactive
OR56B4 | -0.02 | 2.99 | inactive
FXYD4 | 0.73 | 0.54 | inactive
HAGH | 0.81 | 0.53 | inactive
RHOBTB3 | 0.38 | 1.19 | inactive
AGK | 0.63 | 0.88 | inactive
STARD13 | 0.99 | 0.77 | inactive
NALF2 | 1.07 | 0.9 | inactive
MGAT5B | 0.47 | 0.91 | inactive
PRDM9 | 0.5 | 1.02 | inactive
AKR1A1 | 0.18 | 0.84 | inactive
PCDH1 | 1.04 | 0.8 | inactive
PUS7 | 0.49 | 1.26 | inactive
OLR1 | 0.74 | 0.38 | inactive
RRAS | 0.51 | 1.27 | inactive
MSMP | 1.06 | 0.47 | active
C4BPB | 0.37 | 0.9 | inactive
NDUFA10 | 0.83 | 0.97 | inactive
SAMD10 | 0.65 | 0.8 | inactive
LIG1 | 0.52 | 1.98 | inactive
ESRRG | 1 | 0.9 | inactive
ELP4 | 0.75 | 1.01 | inactive
OR13A1 | 0.52 | 1.15 | inactive
DENND4A | 0.7 | 0.99 | inactive
GPM6B | 0.73 | 0.62 | inactive
ABLIM3 | 0.36 | 1.27 | inactive
ELF3 | 0.51 | 0.44 | inactive
UGT2B15 | 0.79 | 0.47 | inactive
PMP22 | 0.68 | 0.84 | inactive
